Values quoted from earlier work in patent publication US11737985B2 (priority 2013, dated 2023).
Some entries share one result that the patent states for a list of compounds.

Settings: in vivo; cited from earlier work

Structure (SMILES)	duration of action [h]
C=C(CC)C(=O)c1ccc(OCC(=O)O)c(Cl)c1Cl [Ethacrynic acid]	2 to 4
NS(=O)(=O)c1cc(C(=O)O)c(NCc2ccco2)cc1Cl [Furosemide]	2 to 4
